Reference: PubChem BioAssay AID1259415 (National Center for Advancing Translational Sciences (NCATS), 2018)
The whole screen tested about 410,000 compounds, of which about 18,000 (4.4%) were called active. Inconclusive results, whose numbers are uncertain, are shown with a selection of clear calls. Cut-off read from the data, not from the text of the source: active = activity change below about -60%; inconclusive = no clear call, values can overlap the other calls; inactive = above about -39%. Some compounds were tested as several samples or in several runs, with calls that do not always agree.

Assay: qHTS Assay for inhibitors of the human cytomegalovirus (HCMV)
Conditions: HFF cells, HCMV-luciferase reporter, 72 h; at 57.5 µM; active compounds read low
In short: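 Human foreskin fibroblasts infected with luciferase-reporter HCMV at MOI 1 PFU/cell, compounds at two doses. Luciferase measured 72 h post infection; normalized to buffer-only basal and Salinomycin (10uM) controls.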
% is set by controls: 0 for no effect and ±100 for the full control effect.

SMILES	activity change, negative = inhibition
CCCCc1nc(Cl)c(C#N)c2c1CCCC2	inconclusive: -56.7%
Cn1nccc1C(=O)OCC(=O)Nc1ccccc1	inconclusive: -44.1%
CC/C(=N\NC(=S)NC(C)C)c1ccc(OC(F)F)cc1	inconclusive: -53.3%
COc1ccc(-c2nc(Cc3ccc(Cl)cc3)no2)cc1OC	active: -73.5%
O=C(CSc1nnc2scc(-c3ccc(Cl)cc3)n12)NCc1ccc2c(c1)OCO2	inconclusive: -47.8%
O=C(N/N=C/C=C\c1ccccc1[N+](=O)[O-])c1ccccn1	inactive: -11.4%
Cc1cc(C)c(NS(=O)(=O)c2cccc3cccnc23)c(C)c1	inactive: -27%
COc1cccc(C(=O)NCCCNC(=O)c2ccccn2)c1	inconclusive: -47.8%
COc1ccc2c(c1)C(O)C(CO)C(C(=O)O)C2 (stereo not given)	inactive: 19.2%
NS(=O)(=O)c1ccc(Nc2c([N+](=O)[O-])cncc2[N+](=O)[O-])cc1	inconclusive: -40.6%
Cc1cccc(C(=O)O/N=C/c2c(Cl)n(C)c3ccccc23)c1	inactive: -19.6%
C[C@@H]1C(=O)O[C@@H]2CC34[C@H]5C[C@@H](C(C)(C)C)C36[C@H](OC(=O)[C@@H]6O)OC4(C(=O)O5)[C@@]12O (stereo not given in full)	inconclusive: -54.4%
CCOC(=O)C1CCN(Cc2cc(C(C)C)c(O)c(C(C)C)c2)CC1	inactive: 5.63%
FC(F)(F)c1ccccc1NC(=S)Nc1cccc(Cl)c1	active: -75.7%
CCN(CC)C(=O)Cn1c(=O)n(CCCC(=O)NCc2ccccc2)c(=O)c2sccc21	inconclusive: -41.1%
CC(=O)c1cccc(CN2CCC(C(=O)Nc3cccc(-c4ccn[nH]4)c3)CC2)c1	inconclusive: -43.8%
C1CNC(C23CC4CC(CC(C4)C2)C3)=N1	inconclusive: -51.4%
Cc1[nH][nH]c(=O)c1C(c1c(C)[nH][nH]c1=O)c1cn(Cc2ccc(Cl)c(Cl)c2)c2ccccc12	inconclusive: -41.6%
CCc1cc(C(=O)NNC(=S)Nc2cc(C)ccc2C)cs1	inactive: -6.41%
O=C1c2ccccc2NC(c2cccc(Cl)c2)N1N=C1CCCCCC1 (stereo not given)	inactive: 63.4%
CC(C)NC(=O)c1ccc2c3n(nc2c1)-c1ccccc1CO3	inconclusive: -43.3%
COC(=O)CSc1nc2cc(OC)ccc2n1C	inconclusive: -43.3%
Cc1ccc(NC(=O)C2CCN(C(=O)c3ccccc3C)CC2)nc1	inconclusive: -40.6%
O=C(Nc1ccc(Cl)cc1)c1cccc(S(=O)(=O)Nc2ccccn2)c1	inconclusive: -49.4%
CCc1ccc(NC(=O)CN2CCN(C3CCCCC3)C(=O)C2=O)cc1	inactive: -5.82%
CCN1CCC2(CCN(C(=O)c3cc(COc4cc(C)ccc4C)on3)C2)C1 (stereo not given)	inconclusive: 0%
COc1ccc(NC(=O)Cn2c(=O)cc(C)c3c(C)nn(C)c32)cc1	inconclusive: -55.5%
CC(=O)Nc1cccc(NC(=O)CSc2ccc(-c3ccccn3)nn2)c1	inconclusive: -59.6%

SMILES	activity change, negative = inhibition
O=C(c1cc(COc2ccc3ncccc3c2)on1)N1CCCC(O)C1 (stereo not given)	active: -63.5%
Cc1cc(C(=O)N/N=C/c2ccc(O)c(O)c2O)c(C)n1-c1ccccc1	inconclusive: -48.5%
O=C1NC(=S)S/C1=C\C=C\c1ccc([N+](=O)[O-])o1	active: -99.8%
COc1cc(C(=S)N2CCOCC2)ccc1OC(=O)c1ccc(Br)cc1	inactive: -14.2%
Clc1ccc(NC2(c3nnnn3C3CCCCC3)CCCCC2)cc1	inconclusive: -40.5%
O=C(COC(=O)c1ccc(Cl)nc1)NCc1ccco1	inconclusive: -43.2%
Cc1ccc(NC(=O)C2CCN(C(=O)N3CCOc4ccccc43)CC2)cc1	inactive: -18.6%
COc1cc(C2C(=O)N(C3CCCCCC3)CC(=O)N2Cc2ccccc2)ccc1OC(C)C (stereo not given)	inconclusive: -56%
CCOC(=O)c1c(NC(=O)C[n+]2ccc(N(C)C)cc2)sc(C)c1C	inconclusive: -48.4%
CC1CCCN(S(=O)(=O)c2ccc(NC(=O)Cc3ccc(S(=O)(=O)N4CCOCC4)s3)cc2)C1 (stereo not given)	inconclusive: -53.1%
CS(=O)(=O)N1CCN(c2ccccc2NC(=O)c2cccc3ccccc23)CC1	inconclusive: -52%
CCCCCc1c(-c2cccc(Br)c2)ncn1CCc1ccccc1OC	inconclusive: -57.6%
O=C(N/N=C/c1ccc[nH]1)c1ccc(COc2cccc3cccnc23)cc1	active: -97.1%
Cc1ccc2c(c1)N(C(=O)N1CCC(C(=O)NCc3cccc(Br)c3)CC1)CCO2	inactive: -22.3%
Cc1cc(-c2ccc(C)c(S(=O)(=O)Nc3cccc(C)n3)c2)on1	inconclusive: 0%
CN1/C(=C\C(=S)NC(=O)c2cccc(Br)c2)C(C)(C)c2ccccc21	active: -95.6%
CC(=O)Nc1ccc(NC(=O)c2cc(=O)c3ccccc3o2)cc1	active: -84.6%
O=C(NC(=S)Nc1ccc(S(=O)(=O)N2CCCC2)cc1)C1CC1	inconclusive: -42.1%
Cc1c(CC(=O)NCCC(C)C)c(=O)oc2cc3c(cc12)CCC(C)(C)O3	inconclusive: -59.2%
Cc1ccc(-c2cccc(C3CC=CC4C3C(=O)N(Cc3ccccc3)C4c3ccc(C(F)(F)F)cc3)c2)cc1 (stereo not given)	inconclusive: -58.6%
CCc1ccc(-n2nnc(-c3nsc(NC(=O)c4ccccc4Cl)n3)c2C)cc1	inconclusive: -44.2%
COc1ccc(NC(=O)CN2C(=O)CSc3ccc(S(=O)(=O)N4CCC(C)CC4)cc32)cc1	inconclusive: -42%
COc1ccc(NC(=S)NNc2ccc(C(=O)O)cc2)cc1	inconclusive: -53.2%
Cc1ccc(-c2nc(-c3ccccn3)no2)cc1	active: -90.6%
COc1ccccc1CNC(=O)c1ccc(Cl)c(S(=O)(=O)N2CCCC2)c1	inconclusive: -42.1%
Nc1nnc(Sc2ccc(Cl)cc2[N+](=O)[O-])s1	inconclusive: -43%
Cc1cc(=O)oc2cc(OCC(=O)Nc3ccc(N4CCC(C)CC4)cc3)ccc12	inconclusive: -41.6%

3 compounds out of the list, arranged by SMILES length, high to low.
SMILES	activity change, negative = inhibition
COc1ccc(NC(=O)CN2C(=O)CSc3ccc(S(=O)(=O)N4CCC(C)CC4)cc32)cc1	inconclusive: -42%
Cc1cc(-c2ccc(C)c(S(=O)(=O)Nc3cccc(C)n3)c2)on1	inconclusive: 0%
O=C(COC(=O)c1ccc(Cl)nc1)NCc1ccco1	inconclusive: -43.2%
